Taken from: PubChem BioAssay AID652243 (Drosophila RNAi Screening Center, 2013)

Screen: 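Knock-downs that decrease or increase androgen receptor reporter signal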 (primary screen)
System: Drosophila S2R+ cells
Reagents: long dsRNA against Drosophila genes
Timing: 72 h (48 h, then 24 h hormone)
Challenge: synthetic androgen R1881 at 10 nM for 24 h
Measurement: 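Firefly light from an androgen-responsive reporter and Renilla control light per well, raw and unnormalised, for each of two replicates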
Scale: firefly reporter light: higher = more light from androgen-responsive reporter; Renilla control light: higher = more constitutive control signal (cell number, transfection)
Hit rule: 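Across duplicate plates, a knock-down whose log firefly/Renilla ratio shifted a set fold down or up from the GFP/LacZ control mean was a hit; the downward cut appears as both 1.5 and 3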
Calls: active = hit: reporter lowered or raised; inactive = no hit
The deposit covers about 24,000 reagents; this is an unselected part of those with a known target gene and a result. Over the whole deposit, 246 (1%) got an active call. 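Plates not normalised; calls are printed but the firefly/Renilla ratio behind them is not deposited; fold cut for lowering reported inconsistently.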 Raw values vary from plate to plate and are shown uncorrected. A plus sign joins genes that one reagent is predicted to hit. The record does not give: the amount of reagent.

For Akap200 [DRSC01864], what does the deposit list?
firefly reporter light, replicate 1: 5.64e5; firefly reporter light, replicate 2: 7.25e5; Renilla control light, replicate 1: 1.39e6; Renilla control light, replicate 2: 1.38e6; outcome: inactive

With Akap200 [DRSC36791], how do the results read?
outcome: inactive

For Nup50 [DRSC06827], what was measured?
firefly reporter light, replicate 1: 8.94e5; firefly reporter light, replicate 2: 6.26e5; Renilla control light, replicate 1: 9.59e5; Renilla control light, replicate 2: 7.88e5; outcome: inactive

With Nup50 [DRSC26470], what was measured?
firefly reporter light, replicate 1: 3.21e5; firefly reporter light, replicate 2: 4.21e5; Renilla control light, replicate 1: 7.15e5; Renilla control light, replicate 2: 5.56e5; outcome: inactive

Which result is listed for CG12016 + Dpm2 [DRSC08224]?
firefly reporter light, replicate 1: 70122; firefly reporter light, replicate 2: 1.56e5; Renilla control light, replicate 1: 4.33e5; Renilla control light, replicate 2: 5.44e5; outcome: inactive

What is on record for CG12016 + Dpm2 [DRSC25292]?
firefly reporter light, replicate 1: 9.77e5; firefly reporter light, replicate 2: 1.22e6; Renilla control light, replicate 1: 1.08e6; Renilla control light, replicate 2: 1.03e6; outcome: inactive

What is on record for CG16854 [DRSC02536]?
firefly reporter light, replicate 1: 2.47e5; firefly reporter light, replicate 2: 3.14e5; Renilla control light, replicate 1: 2.30e6; Renilla control light, replicate 2: 2.70e6; outcome: inactive

With CG7084 [DRSC16194], how do the results read?
firefly reporter light, replicate 1: 1.04e5; firefly reporter light, replicate 2: 89101; Renilla control light, replicate 1: 9.12e5; Renilla control light, replicate 2: 9.06e5; outcome: inactive

How did the screen score Paris [DRSC00451]?
firefly reporter light, replicate 1: 1.09e6; firefly reporter light, replicate 2: 2.07e6; Renilla control light, replicate 1: 1.54e6; Renilla control light, replicate 2: 2.00e6; outcome: inactive

How did the screen score Paris [DRSC29550]?
firefly reporter light, replicate 1: 6.78e5; firefly reporter light, replicate 2: 5.59e5; Renilla control light, replicate 1: 6.68e5; Renilla control light, replicate 2: 6.68e5; outcome: inactive

With CG13699 [DRSC10048], what does the deposit list?
firefly reporter light, replicate 1: 1.71e5; firefly reporter light, replicate 2: 1.32e5; Renilla control light, replicate 1: 1.88e6; Renilla control light, replicate 2: 1.89e6; outcome: inactive

How did the screen score CG13699 [DRSC26349]?
firefly reporter light, replicate 1: 2.93e5; firefly reporter light, replicate 2: 3.42e5; Renilla control light, replicate 1: 7.28e5; Renilla control light, replicate 2: 7.02e5; outcome: inactive

For CG4377 [DRSC04467], what was measured?
firefly reporter light, replicate 1: 1.73e6; firefly reporter light, replicate 2: 4.52e5; Renilla control light, replicate 1: 2.31e6; Renilla control light, replicate 2: 1.04e6; outcome: inactive

For CG4377 [DRSC28406], what was measured?
firefly reporter light, replicate 1: 4.93e5; firefly reporter light, replicate 2: 5.53e5; Renilla control light, replicate 1: 7.91e5; Renilla control light, replicate 2: 1.45e6; outcome: inactive

What did the screen give for Cyp6a19 [DRSC07379]?
firefly reporter light, replicate 1: 1.33e6; firefly reporter light, replicate 2: 1.12e6; Renilla control light, replicate 1: 2.31e6; Renilla control light, replicate 2: 2.09e6; outcome: inactive

What is on record for Vav [DRSC20384]?
firefly reporter light, replicate 1: 1.27e5; firefly reporter light, replicate 2: 81879; Renilla control light, replicate 1: 5.28e5; Renilla control light, replicate 2: 3.45e5; outcome: inactive

Which result is listed for Vav [DRSC24485]?
firefly reporter light, replicate 1: 3.60e5; firefly reporter light, replicate 2: 3.28e5; Renilla control light, replicate 1: 1.54e6; Renilla control light, replicate 2: 6.98e5; outcome: inactive

How did the screen score bb8 [DRSC15578]?
firefly reporter light, replicate 1: 2.36e5; firefly reporter light, replicate 2: 2.51e5; Renilla control light, replicate 1: 2.12e6; Renilla control light, replicate 2: 2.81e6; outcome: inactive

Which result is listed for mAcon1 [DRSC01853]?
firefly reporter light, replicate 1: 93189; firefly reporter light, replicate 2: 1.24e5; Renilla control light, replicate 1: 1.50e6; Renilla control light, replicate 2: 1.46e6; outcome: inactive

With mAcon1 [DRSC24875], what was measured?
firefly reporter light, replicate 1: 1.60e6; firefly reporter light, replicate 2: 1.13e6; Renilla control light, replicate 1: 1.32e6; Renilla control light, replicate 2: 1.00e6; outcome: inactive

How did the screen score mAcon1 [DRSC38959]?
firefly reporter light, replicate 1: 1.04e6; firefly reporter light, replicate 2: 7.59e5; Renilla control light, replicate 1: 2.08e6; Renilla control light, replicate 2: 1.90e6; outcome: inactive

With Herc4 [DRSC08631], how do the results read?
firefly reporter light, replicate 1: 61363; firefly reporter light, replicate 2: 56342; Renilla control light, replicate 1: 6.13e5; Renilla control light, replicate 2: 6.35e5; outcome: inactive

With sit [DRSC15760], what was measured?
firefly reporter light, replicate 1: 3.19e5; firefly reporter light, replicate 2: 2.84e5; Renilla control light, replicate 1: 2.88e6; Renilla control light, replicate 2: 2.97e6; outcome: inactive

What did the screen give for sit [DRSC25250]?
firefly reporter light, replicate 1: 1.22e6; firefly reporter light, replicate 2: 9.51e5; Renilla control light, replicate 1: 1.13e6; Renilla control light, replicate 2: 1.14e6; outcome: inactive

For CG14370 [DRSC14832], how do the results read?
firefly reporter light, replicate 1: 1.17e5; firefly reporter light, replicate 2: 1.13e5; Renilla control light, replicate 1: 1.87e6; Renilla control light, replicate 2: 2.69e6; outcome: inactive

Which result is listed for RhoGAP92B [DRSC14507]?
firefly reporter light, replicate 1: 3.62e5; firefly reporter light, replicate 2: 3.63e5; Renilla control light, replicate 1: 2.63e6; Renilla control light, replicate 2: 2.95e6; outcome: inactive

What did the screen give for RhoGAP92B [DRSC15637]?
firefly reporter light, replicate 1: 1.82e5; firefly reporter light, replicate 2: 1.91e5; Renilla control light, replicate 1: 2.76e6; Renilla control light, replicate 2: 2.56e6; outcome: inactive
